Laboratory results taken from paper PMC4159539.
These are yes or no findings as the source states them, for the method shown. Binding seen in cells or lysates may run through a third protein. Some entries that bind do so weakly or less than the wild type.

Protein sequences, listed by entry. Tags and fused reporters are not part of them. Lines headed by an entry give the natural chain unless they say otherwise; changes in a name come on top. Chains listed by the source or under a name are the forms on record and can include a tag or linker. Residues count along the entry.
UniProt Q03405, residues 23-305: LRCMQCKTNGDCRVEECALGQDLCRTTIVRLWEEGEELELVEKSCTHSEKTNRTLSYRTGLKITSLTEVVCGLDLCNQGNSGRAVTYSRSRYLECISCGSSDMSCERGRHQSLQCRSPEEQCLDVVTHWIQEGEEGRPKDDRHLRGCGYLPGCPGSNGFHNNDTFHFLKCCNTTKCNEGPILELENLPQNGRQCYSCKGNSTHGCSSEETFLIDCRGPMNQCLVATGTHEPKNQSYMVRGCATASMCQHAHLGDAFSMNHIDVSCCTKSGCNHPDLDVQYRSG
MRJ (DNAJB6), in the breast cancer cell line MDA-MB-231 (O75190-2, form named): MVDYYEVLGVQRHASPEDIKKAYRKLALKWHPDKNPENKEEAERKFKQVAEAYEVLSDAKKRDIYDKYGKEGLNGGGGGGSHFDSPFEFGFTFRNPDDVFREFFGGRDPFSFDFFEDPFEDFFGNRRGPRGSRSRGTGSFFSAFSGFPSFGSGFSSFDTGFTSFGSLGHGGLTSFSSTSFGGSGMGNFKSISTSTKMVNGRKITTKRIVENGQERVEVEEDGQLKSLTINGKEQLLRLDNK

How the values were obtained:
uPAR-HA (human) = uPAR-HA (human) (UniProt Q03405); assay: co-IP; HEK293T cells co-transfected with uPAR-HA and HSP70-flag and/or MRJ-flag (also with psiMRJ, psiHSP70 or HSP70-prk5); IP with anti-HA antibody, blot with anti-flag; lysis buffer 50 mM Tris-HCl pH 7.4, 250 mM NaCl, 0.5% Triton-X 100
[1] = target: uPAR, in the breast cancer cell line MDA-MB-231 (human (endogenous in MDA-MB-231)) (UniProt Q03405); assay: co-IP; breast cancer cell line MDA-MB-231; not shown in a figure; additional specificity control

MRJ-flag (from UniProt O75190-2 1-241)
binding (uPAR-HA (human)): binds

MRJ (DNAJB6), in the breast cancer cell line MDA-MB-231 (from UniProt O75190-2 1-241)
binding [1]: binds
